Results on 39 compounds are retold here after the supplement of paper PMC8256030.

Several values for one entry are separate records, joined by “and”; a condition that tells them apart may be missing. Identical values can stand only once. The list shows a part of the results. Repeats in this data set agree poorly, so a single value says little.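 HEK293T cells were given each compound shortly before transfection with a reporter in which red mCherry is followed by the SARS-CoV-2 frameshift element and then GFP in the −1 frame, so GFP appears only after frameshifting.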

This assay has as its system HEK293T. The assay can be described thus: percent viability (nuclei count) relative to control; higher = more viable cells. The following applies: 10 µM; 24 h.
As for `NS(=O)(=O)c1cc2c(cc1Cl)CN(C1CCCCC1)C2=O` [clorexolone], the percent viability is 56%.

With `Cc1cccc(OCC(O)CNC(C)C)c1` (centres undefined) [toliprolol], the percent viability is 222%.

As for `CC(N)CCCC(C)(C)O` (centres undefined), the percent viability was 396%.

For the compound `COc1ccc2nc3cc(Cl)ccc3c(Nc3cc(CN4CCCC4)c(O)c(CN4CCCC4)c3)c2n1`, the percent viability turned out to be 278%.

Regarding `C/C=C\C=C\[C@@H]1O[C@](O)([C@H](CC)C(=O)NC/C=C/C=C(\C)[C@@H](OC)[C@H](C)[C@@H]2O[C@H](/C=C/C=C/C=C(\C)C(=O)c3c(O)cc[nH]c3=O)[C@H](O)[C@@H]2O)[C@H](O)[C@H](O)C1(C)C` [mocimycin], the percent viability was 137%.

For `CCCN[C@H]1CCc2nc(N)sc2C1` [Pramipexole], the percent viability stood at 151%.

For the compound `Cc1cccc(C)c1OCC(=O)N[C@@H](Cc1ccccc1)[C@@H](O)C[C@H](Cc1ccccc1)NC(=O)[C@H](C(C)C)N1CCCNC1=O` [lopinavir], the percent viability amounted to 250%.

Consider `CCCCCCCCCCCCCCCCCC(=O)OC[C@H](COP(=O)(O)OC[C@H](N)C(=O)O)OC(=O)CCCCCCCCCCCCCCCCC` [Phosphatidylserine], for which the percent viability came out at 253%.

With `CCOC(=O)C(C)(C)Oc1ccc(Cl)cc1` [clofibrate], the percent viability was 365% and 178%.

For `CCOC(=O)Nc1nc2ccccc2[nH]1` [lobendazole], the percent viability is 308%.

As for `Cc1ccc2c(Br)cc(Br)c(O)c2n1` [broquinaldol], the percent viability was found to be 85.5%.

Regarding `O=C(O)c1cc(-c2ccc(F)cc2F)ccc1O` [diflunisal], the percent viability is 209% and 166%.

As to `O=C(Nc1ccc(O)cc1)c1ccccc1O` [osalmid], the percent viability was 241%.

In the case of `N[C@@H](CO)C(=O)O` [serine], the percent viability was 171%.

As for `COc1cc(C(C)=O)ccc1OCCCN1CCC(c2noc3cc(F)ccc23)CC1` [iloperidone], the percent viability was determined as 270%.

Regarding `CC(C)C[C@H](NC(=O)[C@H](Cc1ccccc1)NC(=O)c1cnccn1)B(O)O` [Bortezomib], the percent viability is 87.4%.

In the case of `CO[C@H]1C[C@@H]2CC[C@@H](C)[C@@](O)(O2)C(=O)C(=O)N2CCCC[C@H]2C(=O)O[C@H]([C@H](C)C[C@@H]2CC[C@@H](OCCO)[C@H](OC)C2)CC(=O)[C@H](C)/C=C(\C)[C@@H](O)[C@@H](OC)C(=O)[C@H](C)C[C@H](C)/C=C/C=C/C=C/1C` [Everolimus], the percent viability stood at 153%.

For `CC(C)(C)CC(C)(C)c1ccc(OCCOCC[N+](C)(C)Cc2ccccc2)cc1` [benzethonium chloride], the percent viability was 132%.

For the compound `O=C(O)c1ccc[n+]([O-])c1`, the percent viability turned out to be 353%.

In the case of `C#CCN(C)CCCOc1ccc(Cl)cc1Cl`, the percent viability is 244%.

On to `CC(C)(CO)C(O)C(=O)NCCC(=O)O` (centres undefined), for which the percent viability was 340%.

Regarding `CC(=O)OCC(=O)[C@@]12N=C(C)O[C@@H]1C[C@H]1[C@@H]3CCC4=CC(=O)C=C[C@]4(C)[C@H]3[C@@H](O)C[C@@]12C`, the percent viability is 149%.

Regarding `Clc1cccc(Cl)c1NC1=NCCN1` [clonidine], the percent viability was found to be 232%.

For `CC[C@H](C)[C@H](N)C1=N[C@H](C(=O)N[C@@H](CC(C)C)C(=O)N[C@H](CCC(=O)O)C(=O)N[C@H](C(=O)N[C@H]2CCCCNC(=O)[C@H](CC(N)=O)NC(=O)[C@@H](CC(=O)O)NC(=O)[C@H](Cc3cnc[nH]3)NC(=O)[C@@H](Cc3ccccc3)NC(=O)[C@H]([C@@H](C)CC)NC(=O)[C@@H](CCCN)NC2=O)[C@@H](C)CC)CS1` [Bacitracin], the percent viability was 296%.

Take `C=C(C)Cn1c(N)cc(=O)n(C)c1=O` [amisometradine]: the percent viability was 292%.

For `C#CC(C)(CC)OC(=O)c1ccccc1C(=O)O` (centres undefined) [ftalofyne], the percent viability worked out at 103%.

With `CCOC(=O)[C@H](CCc1ccccc1)N[C@@H](C)C(=O)N1[C@H](C(=O)O)C[C@H]2CCCC[C@@H]21` [trandolapril], the percent viability was 233% and 146%.

Turning to `O=S(=O)(O)CCSSCCS(=O)(=O)O` [dimesna], the percent viability worked out at 333%.

For `CC(=O)OC/C=C(C)/C=C/C=C(C)/C=C/C1=C(C)CCCC1(C)C`, the percent viability worked out at 308%.

Consider `CN1CC(=O)N=C1N`, for which the percent viability came out at 306%.

In the case of `NCCCC(O)(P(=O)(O)O)P(=O)(O)O`, the percent viability turned out to be 264%.

For the compound `CC(C)C[C@H](NC(=O)[C@@H](Cc1c[nH]c2ccccc12)NC(=O)[C@H](Cc1ccc(O)cc1)NC(=O)[C@H](CO)NC(=O)[C@H](Cc1c[nH]c2ccccc12)NC(=O)[C@H](Cc1c[nH]cn1)NC(=O)[C@@H]1CCC(=O)N1)C(=O)N[C@@H](CCCNC(=N)N)C(=O)N1CCC[C@H]1C(=O)NCC(N)=O` [Triptorelin], the percent viability worked out at 188%.

As to `CN1Cc2c(N)cccc2C(c2ccccc2)C1` (centres undefined), the percent viability came out at 146%.

`NC(=O)C[C@H](N)C(=O)O` [L-Asparagine]: the percent viability is 23.1%.

As for `Nc1ccc(S(=O)(=O)Nc2cncc(Cl)n2)cc1` [sulfaclozine], the percent viability was found to be 201%.

As for `O=C(NNCS(=O)(=O)O)c1ccncc1` [methaniazide], the percent viability was determined as 236%.

Turning to `O=C(CCCl)NCc1ccccc1` [beclamide], the percent viability is 214%.

With `CC(=O)Oc1cc2c(s1)CCN(C(C(=O)C1CC1)c1ccccc1F)C2` (centres undefined) [prasugrel], the percent viability was found to be 231%.

Consider `OC[C@H]1O[C@H](O[C@H]2[C@H](O)[C@@H](O)C(O)O[C@@H]2CO)[C@H](O)[C@@H](O)[C@@H]1O` (some centres undefined), for which the percent viability is 331%.
